# Data reported in the supplement of paper PMC8728848.
# The other results are listed elsewhere or left out.
# What was measured:
# Assay in all cases: glycan array binding signal (z-score within array); higher = stronger binding
# Details in all cases: glycan notation: IUPAC condensed, linker removed
# [1] = molecular target: GlcNAc(b1-3)Gal(b1-4)GlcNAc(b1-3)Gal(b1-4)GlcNAc(b1-3)GalNAc
# Procedure, shortened: (§1)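 Negative Z-scores can be read as non-binding. The Z-score is calculated within each array and then averaged across arrays of one protein sequence at different concentrations or buffers and across linkers. Arrays, 3228 in all, were curated from the Consortium for Functional Glycomics database and kept only where the protein sequence was available.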
# [2] = molecular target: GlcNAc(b1-3)Gal(b1-4)GlcNAc(b1-3)GalNAc
# Procedure, shortened: as §1
# [3] = molecular target: GlcNAc(b1-3)Gal(b1-4)GlcNAc(b1-3)[GlcNAc(b1-3)Gal(b1-4)GlcNAc(b1-3)]GalNAc
# Procedure, shortened: as §1
# [4] = molecular target: GlcNAc(b1-3)Gal(b1-4)GlcNAc(b1-6)[Gal(b1-3)]GalNAc
# Procedure, shortened: as §1
# [5] = molecular target: GlcNAc(b1-3)Gal(b1-4)GlcNAc(b1-6)[GlcNAc(b1-3)Gal(b1-3)]GalNAc
# Procedure, shortened: as §1
# [6] = molecular target: GlcNAc(b1-3)Gal(b1-4)GlcNAc(b1-6)[GlcNAc(b1-3)]Gal(b1-4)GlcNAc
# Procedure, shortened: as §1
# GlcNAc(b1-3)GalNAc = molecular target: GlcNAc(b1-3)GalNAc
# Procedure, shortened: as §1
# GlcNAc(b1-3)Man = molecular target: GlcNAc(b1-3)Man
# Procedure, shortened: as §1
# [7] = molecular target: GlcNAc(b1-3)[GlcNAc(b1-4)][GlcNAc(b1-6)]GlcNAc
# Procedure, shortened: as §1
# [8] = molecular target: GlcNAc(b1-3)[GlcNAc(b1-6)]Gal(b1-4)GlcNAc
# Procedure, shortened: as §1
# [9] = molecular target: GlcNAc(b1-3)[GlcNAc(b1-6)]GalNAc
# Procedure, shortened: as §1
# [10] = molecular target: GlcNAc(b1-4)Gal(b1-4)GlcNAc
# Procedure, shortened: as §1
# GlcNAc(b1-4)GlcNAc = molecular target: GlcNAc(b1-4)GlcNAc
# Procedure, shortened: as §1
# [11] = molecular target: GlcNAc(b1-4)GlcNAc(b1-4)GlcNAc
# Procedure, shortened: as §1
# [12] = molecular target: GlcNAc(b1-4)GlcNAc(b1-4)GlcNAc(b1-4)GlcNAc(b1-4)GlcNAc
# Procedure, shortened: as §1
# [13] = molecular target: GlcNAc(b1-4)GlcNAc(b1-4)GlcNAc(b1-4)GlcNAc(b1-4)GlcNAc(b1-4)GlcNAc
# Procedure, shortened: as §1
# [14] = molecular target: GlcNAc(b1-4)[GlcNAc(b1-6)]GalNAc
# Procedure, shortened: as §1
# [15] = molecular target: GlcNAc(b1-6)Gal(b1-4)GlcNAc
# Procedure, shortened: as §1
# GlcNAc(b1-6)GalNAc = molecular target: GlcNAc(b1-6)GalNAc
# Procedure, shortened: as §1
# [16] = molecular target: GlcNAc6S(b1-3)Gal(b1-4)GlcNAc
# Procedure, shortened: as §1
# Kdn(a2-3)Gal(b1-3)GalNAc = molecular target: Kdn(a2-3)Gal(b1-3)GalNAc
# Procedure, shortened: as §1
# Kdn(a2-3)Gal(b1-3)GlcNAc = molecular target: Kdn(a2-3)Gal(b1-3)GlcNAc
# Procedure, shortened: as §1
# Kdn(a2-3)Gal(b1-4)Glc = molecular target: Kdn(a2-3)Gal(b1-4)Glc
# Procedure, shortened: as §1
# Kdn(a2-3)Gal(b1-4)GlcNAc = molecular target: Kdn(a2-3)Gal(b1-4)GlcNAc
# Procedure, shortened: as §1
# [17] = molecular target: Kdn(a2-3)Gal(b1-4)[Fuc(a1-3)]GlcNAc
# Procedure, shortened: as §1
# Kdn(a2-6)Gal(b1-4)GlcNAc = molecular target: Kdn(a2-6)Gal(b1-4)GlcNAc
# Procedure, shortened: as §1
# [18] = molecular target: Man(a1-2)Man(a1-2)Man(a1-3)Man
# Procedure, shortened: as §1
# [19] = molecular target: Man(a1-2)Man(a1-2)Man(a1-6)[Man(a1-3)]Man
# Procedure, shortened: as §1
# Man(a1-2)Man(a1-3)Man = molecular target: Man(a1-2)Man(a1-3)Man
# Procedure, shortened: as §1
# [20] = molecular target: Man(a1-2)Man(a1-3)[Man(a1-2)Man(a1-6)]Man
# Procedure, shortened: as §1
# [21] = molecular target: Man(a1-2)Man(a1-3)[Man(a1-2)Man(a1-6)]Man(a1-6)[Man(a1-2)Man(a1-2)Man(a1-3)]Man
# Procedure, shortened: as §1
# [22] = molecular target: Man(a1-2)Man(a1-3)[Man(a1-2)Man(a1-6)]Man(a1-6)[Man(a1-2)Man(a1-2)Man(a1-3)]Man(b1-4)GlcNAc(b1-4)GlcNAc
# Procedure, shortened: as §1
# [23] = molecular target: Man(a1-2)Man(a1-3)[Man(a1-6)]Man(a1-6)[Man(a1-2)Man(a1-3)]Man(b1-4)GlcNAc(b1-4)GlcNAc
# Procedure, shortened: as §1
# [24] = molecular target: Man(a1-2)Man(a1-6)[Man(a1-3)]Man(a1-6)[Man(a1-2)Man(a1-2)Man(a1-3)]Man
# Procedure, shortened: as §1
# [25] = molecular target: Man(a1-2)Man(a1-6)[Man(a1-3)]Man(a1-6)[Man(a1-2)Man(a1-2)Man(a1-3)]Man(b1-4)GlcNAc(b1-4)GlcNAc
# Procedure, shortened: as §1
# Man(a1-3)[Man(a1-6)]Man = molecular target: Man(a1-3)[Man(a1-6)]Man
# Procedure, shortened: as §1
# [26] = molecular target: Man(a1-3)[Man(a1-6)]Man(a1-6)[Man(a1-2)Man(a1-3)]Man(b1-4)GlcNAc(b1-4)GlcNAc
# Procedure, shortened: as §1
# [27] = molecular target: Man(a1-3)[Man(a1-6)]Man(a1-6)[Man(a1-3)]Man
# Procedure, shortened: as §1
# [28] = molecular target: Man(a1-3)[Man(a1-6)]Man(a1-6)[Man(a1-3)]Man(b1-4)GlcNAc(b1-4)GlcNAc
# Procedure, shortened: as §1
# [29] = molecular target: Man(a1-3)[Man(a1-6)]Man(b1-4)GlcNAc(b1-4)GlcNAc
# Procedure, shortened: as §1
# [30] = molecular target: Man(a1-3)[Man(a1-6)]Man(b1-4)GlcNAc(b1-4)[Fuc(a1-6)]GlcNAc
# Procedure, shortened: as §1
# Man(a1-6)Man = molecular target: Man(a1-6)Man
# Procedure, shortened: as §1
# Man(b1-4)GlcNAc = molecular target: Man(b1-4)GlcNAc
# Procedure, shortened: as §1
# MurNAc(b1-4)GlcNAc = molecular target: MurNAc(b1-4)GlcNAc
# Procedure, shortened: as §1
# Neu5Ac(a2-3)Gal = molecular target: Neu5Ac(a2-3)Gal
# Procedure, shortened: as §1
binder,measurement,setting,value
PX14375D-bvu-513-34-513 (Bacteroides vulgatus) (protein) TEDTFWKDETDFNLALTSCYTPLKNALNGGYYGTRGVMLRIARADEVDFRNDISDVYTVNRFTNSNTNSLTQGMFYQFYNALYRTNSIMQKLEEKKEQFSTDFQNSVKGECLFIRGFYLFQLAKEFKDAPLRLTASQSPSTFPLAKSSQADIWAQAKEDLKTAASLLPITNKIGKPTQGAAYAALGKIYVYEENWQEAINVLEPLTQNPYTYKLVEDFNWNFDDTHENNAESIFELLIEDVGGTDLWGDGENINSTQSNTRPKEYAAAEVGGWYEANPTQQIMDIFWKEKDKDGNFDYRARCSVAWDYEGCTYYQRPFREVFAQDKWKTYWILKYQNWKTQKDEPAPPKSFINERAIRYADVLLMLAEAYMNKGALDTSIGYINQIRRRANLNDYSGPITKEGVFEDLVHQRAIEFFVEGERFYDLRRWGLLEQTLKTCDDTRYKNYQTGKSDNINKFNYFPIPAKELDTNPLCTPSEGW,glycan array binding signal (z-score),[1],-0.787
same,glycan array binding signal (z-score),[2],1.06
same,glycan array binding signal (z-score),[3],-0.891
same,glycan array binding signal (z-score),[4],-0.274
same,glycan array binding signal (z-score),[5],0.929
same,glycan array binding signal (z-score),[6],-0.578
same,glycan array binding signal (z-score),GlcNAc(b1-3)GalNAc,-0.787
same,glycan array binding signal (z-score),GlcNAc(b1-3)Man,0.196
same,glycan array binding signal (z-score),[7],-1.1
same,glycan array binding signal (z-score),[8],-0.517
same,glycan array binding signal (z-score),[9],-0.467
same,glycan array binding signal (z-score),[10],-0.613
same,glycan array binding signal (z-score),GlcNAc(b1-4)GlcNAc,0.164
same,glycan array binding signal (z-score),[11],0.257
same,glycan array binding signal (z-score),[12],-1.21
same,glycan array binding signal (z-score),[13],-0.078
same,glycan array binding signal (z-score),[14],-0.077
same,glycan array binding signal (z-score),[15],-0.889
same,glycan array binding signal (z-score),GlcNAc(b1-6)GalNAc,0.355
same,glycan array binding signal (z-score),[16],-0.865
same,glycan array binding signal (z-score),Kdn(a2-3)Gal(b1-3)GalNAc,-0.481
same,glycan array binding signal (z-score),Kdn(a2-3)Gal(b1-3)GlcNAc,-0.5
same,glycan array binding signal (z-score),Kdn(a2-3)Gal(b1-4)Glc,-0.365
same,glycan array binding signal (z-score),Kdn(a2-3)Gal(b1-4)GlcNAc,-0.661
same,glycan array binding signal (z-score),[17],-0.888
same,glycan array binding signal (z-score),Kdn(a2-6)Gal(b1-4)GlcNAc,0.143
same,glycan array binding signal (z-score),[18],-0.876
same,glycan array binding signal (z-score),[19],-1.09
same,glycan array binding signal (z-score),Man(a1-2)Man(a1-3)Man,-1
same,glycan array binding signal (z-score),[20],-0.686
same,glycan array binding signal (z-score),[21],-0.479
same,glycan array binding signal (z-score),[22],-0.156
same,glycan array binding signal (z-score),[23],-0.571
same,glycan array binding signal (z-score),[24],-0.845
same,glycan array binding signal (z-score),[25],0.184
same,glycan array binding signal (z-score),Man(a1-3)[Man(a1-6)]Man,0.285
same,glycan array binding signal (z-score),[26],-0.298
same,glycan array binding signal (z-score),[27],0.769
same,glycan array binding signal (z-score),[28],-0.125
same,glycan array binding signal (z-score),[29],0.478
same,glycan array binding signal (z-score),[30],-0.592
same,glycan array binding signal (z-score),Man(a1-6)Man,0.399
same,glycan array binding signal (z-score),Man(b1-4)GlcNAc,0.571
same,glycan array binding signal (z-score),MurNAc(b1-4)GlcNAc,0.052
same,glycan array binding signal (z-score),Neu5Ac(a2-3)Gal,0.476

# A section from the list above, as a working copy:
binder,measurement,setting,value
PX14375D-bvu-513-34-513 (Bacteroides vulgatus) (protein) TEDTFWKDETDFNLALTSCYTPLKNALNGGYYGTRGVMLRIARADEVDFRNDISDVYTVNRFTNSNTNSLTQGMFYQFYNALYRTNSIMQKLEEKKEQFSTDFQNSVKGECLFIRGFYLFQLAKEFKDAPLRLTASQSPSTFPLAKSSQADIWAQAKEDLKTAASLLPITNKIGKPTQGAAYAALGKIYVYEENWQEAINVLEPLTQNPYTYKLVEDFNWNFDDTHENNAESIFELLIEDVGGTDLWGDGENINSTQSNTRPKEYAAAEVGGWYEANPTQQIMDIFWKEKDKDGNFDYRARCSVAWDYEGCTYYQRPFREVFAQDKWKTYWILKYQNWKTQKDEPAPPKSFINERAIRYADVLLMLAEAYMNKGALDTSIGYINQIRRRANLNDYSGPITKEGVFEDLVHQRAIEFFVEGERFYDLRRWGLLEQTLKTCDDTRYKNYQTGKSDNINKFNYFPIPAKELDTNPLCTPSEGW,glycan array binding signal (z-score),Man(b1-4)GlcNAc,0.571
same,glycan array binding signal (z-score),MurNAc(b1-4)GlcNAc,0.052
same,glycan array binding signal (z-score),Neu5Ac(a2-3)Gal,0.476
